# Screen size: about 360,000 compounds; about 780 (0.22%) were called active. This list was built around the results that the source calls inconclusive (neither active nor inactive); the mix of calls is not that of the screen. Cut-off read from the data, not from the text of the source: active = inhibition above about 35% (passing the limit was not always enough); inconclusive = no clear call, values can overlap the other calls.
# Test system: Botulinum neurotoxin type F light chain protease (Clostridium botulinum)
# Experiment: BoNT/F light chain protease inhibitors, primary screen, biochemical, flow cytometry, MLPCN library (AID 588497); note: plate controls were buffer without enzyme for full effect and enzyme alone for no effect
# Settings: Multiplex microsphere protease cleavage assay, at 10 µM, active compounds read high
row,SMILES,inhibition
1,CC(C)CN(C(=O)C1CC1)c1c(N)n(Cc2ccccc2)c(=O)[nH]c1=O,inconclusive: 14.4%
2,O=C(C1CC1)N(CCc1ccccc1)Cc1nc2ccccc2c(=O)[nH]1,inconclusive: 38.9%
3,CCCc1nc2c3ccccc3ccn2c1Cc1ccc(OC)cc1C,inconclusive: -3.5%
4,O=C(Nc1cc2c3c(c1)CC(=O)N3CCC2)c1ccco1,inactive: -10.3%
5,CCSc1nc2sc3c(c2c(=O)n1-c1ccccc1)CCN(C(C)C)C3,active: 46.5%
6,COCCNC(=O)Cn1cc(/C=C(\C#N)C(=O)NC2CCCC2)c2ccccc21,inconclusive: 8.9%
7,CN(C(=O)c1ccccn1)c1nnc(-c2ccccn2)s1,active: 40.4%
8,O=S(=O)(O)c1nc2ccccc2n1Cc1ccccc1,inactive: -4.7%
9,COCCN(C(=O)CSc1nnc(-c2cccc(F)c2)n1N)c1c(N)n(Cc2ccccc2)c(=O)[nH]c1=O,inactive: -4.6%
10,CC(=Nc1ccc2c(c1)CCC2)c1c(O)n(-c2ccccc2)c(=O)[nH]c1=O,inconclusive: 22%
11,COc1ccccc1/C=C/C(=O)Nc1nc(N)n(-c2ccccc2)n1,inconclusive: 30%
12,CN1CCN(C(=O)CCC(=O)NCc2ccc(F)cc2)CC1,inconclusive: -10.8%
13,C[C@H](NC(=O)OC(C)(C)C)C(=O)N/N=C/c1cccc2nccnc12,inconclusive: 5.2%
14,Oc1c(Br)cc(Br)cc1/C=N/n1c(-c2ccccc2)n[nH]c1=S,inconclusive: -15.3%
15,CC1=NN(C(=O)c2ccccc2)C(O)(c2ccc(Br)cc2)C1 (configuration not stated),inconclusive: 6.2%
16,CC12CC3CC(C)(C1)CC(C(=O)N1CCCC1)(C3)C2,inconclusive: -19%
17,CC1(C)C(C=C(Cl)Cl)C1C(=O)N/N=C/c1ccccc1F (configuration not stated),inconclusive: 27.2%
18,O=C(Nc1ccc(CN2CCOCC2)cc1)c1ccccc1F,inconclusive: -6.9%
19,Cc1cc(C(=O)O)n(C(C)(C)C)n1,inconclusive: 77.2%
20,CCOC(=O)C1CCc2c(ccc3ccccc23)N1CCC#N (configuration not stated),inactive: 3.4%
21,Cc1cc(=O)oc2cc(OCC(=O)NCCc3nc4ccccc4[nH]3)ccc12,inconclusive: -15.8%
22,Nc1ccc(-c2nnn(Cc3ccccc3F)n2)cc1,inconclusive: -12.4%
23,C[C@H]1CN([C@@H](C)CO)C(=O)Cc2cc(NC(=O)CCC(F)(F)F)ccc2O[C@H]1CN(C)CC1CC1,inactive: -10.6%
24,CCc1ccc2nc(SCC(=O)N3CCCCC3)c(C#N)cc2c1,inactive: 11.3%
25,COc1ccc(C(=O)N2CCN(CCCc3ccccc3)CC2)cc1OC,inactive: 7.6%

row,SMILES,inhibition
1,CCCC(=O)N1CCCC(C(=O)c2cccc(OC(C)C)c2)C1 (configuration not stated),inconclusive: 32%
2,COc1nc(N)c(C#N)c(-c2ccc(N(C)CCC#N)cc2)c1C#N,inconclusive: -83.1%
3,CCN(CC)C(=O)CSc1nc(O)c(Cc2ccc(OC)cc2)c(=O)[nH]1,inconclusive: 1.1%
4,O=c1c2ccccc2nnn1-c1ccc(Br)cc1,active: 40.8%
5,O=S(=O)(NN=C1CCCCCCC1)c1ccccc1,inactive: 4.8%
6,c1ccc(-c2noc(C3CCC3)n2)nc1,inconclusive: 26.2%
7,CN1c2ccccc2C(=O)/C(=C\Nc2ccc(F)cc2F)S1(=O)=O,inconclusive: 20.9%
8,c1ccc(CSc2snnc2-c2ccccc2)cc1,inconclusive: -12.1%
9,CCN1CCN(CC(=O)Nc2ccc(OC(F)(F)F)cc2)CC1,inconclusive: 11.6%
10,Cc1nc(C(F)(F)F)ccc1C(=O)N1CCCCC1,inconclusive: -14.1%
11,Cc1nc(C(=O)Nc2cc(Cl)ccc2Cl)nn1-c1cc(OC(C)C)c(Cl)cc1Cl,inactive: 1.2%
12,CC(=O)Oc1ccc(C(=O)NCc2ccc3c(c2)OCO3)cc1,inconclusive: 4.2%
13,Cc1cc(C2C(C#N)=C(N)OC3=C2C(=O)CCC3)c(C)s1 (configuration not stated),inactive: -8.2%
14,CC1(C)NC(=O)N(CC(=O)OCC(=O)Nc2cccc(F)c2)C1=O,inconclusive: -26.5%
15,O=C(CN(C1CCCCC1)C1CCCCC1)N1CCc2ccccc2C1,inactive: -1%
16,COc1cc(C(C)=O)ccc1OCC(O)CN1CCN(c2cc(C)cc(C)c2)CC1 (configuration not stated),inconclusive: -7.6%
17,Cc1ccc2cccc(SCC(=O)N3CCOCC3)c2n1,inconclusive: 9.7%
18,CC(=O)c1c(C)nn(-c2ccccc2)c1C,inconclusive: 52.4%
19,O=C1CC(NNC(=O)c2ccc(Br)cc2)C(=O)N1 (configuration not stated),active: 42.8%
20,CSc1c(CN2CCN(C)CC2)c2ccccc2n1C,inconclusive: 22%
21,O=C(Nc1cccc(O)c1)c1c(O)c2ccccc2[nH]c1=O,active: 35.6%
22,O=C(NCCN1CCOCC1)c1ccc(-c2ccccc2)cc1,inactive: 6.8%
23,CCC(C)(C)C1CCC(=NNC(=O)c2ccoc2C)CC1 (configuration not stated),inconclusive: -1.5%
24,O=P(O)(c1ccccc1)c1ccccc1O,inconclusive: -6.9%
25,CNC(=O)c1ccc(-n2cccn2)nc1,inactive: 11.5%

# 3 entries picked at random from those above, as already listed:
row,SMILES,inhibition
5,O=S(=O)(NN=C1CCCCCCC1)c1ccccc1,inactive: 4.8%
24,O=P(O)(c1ccccc1)c1ccccc1O,inconclusive: -6.9%
20,CSc1c(CN2CCN(C)CC2)c2ccccc2n1C,inconclusive: 22%

# More records

row,SMILES,inhibition
1,Cc1cc(C)cc(OCCN2CCOCC2)c1,inconclusive: -5.9%
2,Cn1c(SCc2ccccc2)nnc1C1CCCNC1 (configuration not stated),inconclusive: 30.8%
3,CC(C)c1cc(O)c(-c2ccccc2)c(=O)n1-c1ccc(Cl)cc1,inconclusive: -22.2%
4,CCn1c(SCC(=O)N/N=C/c2ccncc2)nc2ccccc21,inconclusive: 37.1%
5,COc1cc(SC)ccc1C(=O)N1CCN(Cc2ccc3c(c2)OCO3)CC1,inconclusive: -13.1%
6,CC(NC(=O)C1CCC(CNS(=O)(=O)c2ccccc2)CC1)c1ccccc1 (configuration not stated),inconclusive: -11.7%
7,Cc1cc(S(=O)(=O)Nc2ccc3ccccc3c2)c(C)s1,inactive: 2.2%
8,COc1ccc(C(=O)O)nc1C,inconclusive: -5.4%
9,CC(N=Cc1cccc(O)c1O)c1ccccc1 (configuration not stated),inactive: -1.4%
10,Nc1ccc(N=Nc2ccccc2Cl)c(N)n1,inconclusive: -10.9%
11,COc1ccc(C2C(C(=O)c3sc(C)nc3C)=C(O)C(=O)N2CCCn2ccnc2)cc1OC (configuration not stated),inactive: -1.6%
12,Cc1ccc(C)c(NC(=O)CSc2nc3nc(-c4cccs4)cc(C(F)(F)F)c3c(=O)[nH]2)c1,inactive: -0.1%
13,O=C(C[n+]1cc(-c2ccc(F)cc2)n2c1CCC2)c1cccs1,inconclusive: 27%
14,Cc1nc(-c2ccc(S(=O)(=O)Oc3ccccc3Cl)s2)cs1,inconclusive: -7.8%
15,Fc1ccccc1COc1ccc(C(=S)N2CCCC2)cc1,inconclusive: 36%
16,COc1ccc2oc(C(=O)Nc3nccs3)c(C)c2c1,inconclusive: -6.8%
17,CC(C)[C@@H]1Cc2[nH]c(=S)[nH]c(=O)c2[C@H](CCc2ccccc2)O1,inactive: -1.4%
18,Cn1nnnc1SCCNS(=O)(=O)c1ccccc1,inconclusive: -21.4%
19,Cc1ncc(CCl)c2c1OC(C)(C)OC2,inconclusive: -7.6%
20,O=C(NCN1CCc2ccccc2C1)c1ccccc1,inactive: -6.5%
21,NC(=S)NN=C1C=CCCC1,inactive: -7.6%
22,OC1(CC#CCN2CCCCC2)c2ccccc2-c2ccccc21,inconclusive: -48.7%
23,Nc1ccc(C(=O)CC(=O)Nc2ccc(Cl)cc2)cc1,inactive: -23.4%
24,O=C(N/N=C/c1ccncc1)c1cc2ccccc2o1,inactive: -4.3%
25,Cc1ccc(/C=C(\NC(=O)c2ccccc2)C(=O)NC(Cc2ccccc2)C(=O)O)cc1 (configuration not stated),inactive: 3.5%

# Molecules shown so far that have a tert-butyl group:
row,SMILES,inhibition
13,C[C@H](NC(=O)OC(C)(C)C)C(=O)N/N=C/c1cccc2nccnc12,inconclusive: 5.2%
19,Cc1cc(C(=O)O)n(C(C)(C)C)n1,inconclusive: 77.2%

# (next part)

row,SMILES,inhibition
1,Cc1ccc(NC(=O)c2cc(C(C)(C)C)nn2Cc2ccccc2)cc1,inconclusive: 120%
2,CC(C)NC(=O)c1ccc(CN2CCC(Cc3ccccc3)CC2)cc1,inconclusive: -12.2%
3,O=C1c2cccc(Cl)c2C(=O)N1c1ccccn1,inconclusive: 6.7%
4,Cc1cccc(NC(=O)CSc2nc(N)cc(N)n2)c1,inconclusive: -13.8%
5,S=C(N/N=C/c1cccc2ccccc12)Nc1cccc(Cl)c1,inconclusive: 32.7%
6,O=C1CCCN1CCC1CCN(C(=S)Nc2ccc(F)cc2)CC1,inconclusive: 2.7%
7,Cc1cc(C)nc(Nc2n[nH]c(-c3ccccc3N)n2)n1,inconclusive: -44.1%
8,c1ccc(CCc2nc(-c3cccnc3)no2)cc1,inconclusive: -49.4%
9,CCn1c(/C=C/c2cc(Br)ccc2O)nc2ccccc2c1=O,inconclusive: 10.3%
10,O=C(CN1C(=O)NC2(CCCCCC2)C1=O)c1ccc(F)cc1,inconclusive: 19.8%
11,Cc1cccc(C)c1NC(=O)CSC(=O)c1sc2ccccc2c1Cl,inconclusive: -108%
12,NC(=O)CSc1nnc(COc2ccc3ccccc3c2)o1,inconclusive: -0.8%
13,CCOC(=O)c1c(SCCN2CCCC2)n(-c2ccccc2)c(=S)n(-c2ccccc2)c1=O,inactive: 0.5%
14,COc1ccccc1C1CC(c2ccc(Cl)cc2)Nc2ncnn21 (configuration not stated),inconclusive: -29.1%
15,CCC(C(=O)OC(C)C)c1ccc2ccccc2c1 (configuration not stated),inactive: 1.5%
16,Cc1cc(C(=O)Nc2ccc(Cl)c(S(=O)(=O)N3CCOCC3)c2)c2ccccc2n1,inconclusive: -4.7%
17,COc1cccc(NC(=O)c2ccc(N3C(=O)C4CC=CCC4C3=O)cc2)c1 (configuration not stated),inconclusive: 30.4%
18,COc1cc(NC(=O)C2CC(c3ccc(Cl)cc3)=NO2)cc(OC)c1OC (configuration not stated),inconclusive: 10.1%
19,CNc1nc(NCc2ccccc2)c2sccc2n1,inactive: -1%
20,COc1ccc(OC)c(NC(=O)CCN2CC(C)CC(C)C2)c1 (configuration not stated),inconclusive: -6.4%
21,O=C(NCC1CCCCC1)c1ccc(F)cc1Cl,inconclusive: -1%
22,Cn1c(=O)c(C(=O)c2ccc(S(C)(=O)=O)c(Cl)c2Cl)c(O)c2ccccc21,inconclusive: 4.6%

# — PubChem BioAssay AID588497 (NMMLSC, 2011)
